# Measurements reported in PubChem BioAssay AID2517 (National Center for Advancing Translational Sciences (NCATS), 2010).
# The chains behind the UniProt entries cited, without tags or fusion partners.
# UniProt P27695, whole entry, looked up: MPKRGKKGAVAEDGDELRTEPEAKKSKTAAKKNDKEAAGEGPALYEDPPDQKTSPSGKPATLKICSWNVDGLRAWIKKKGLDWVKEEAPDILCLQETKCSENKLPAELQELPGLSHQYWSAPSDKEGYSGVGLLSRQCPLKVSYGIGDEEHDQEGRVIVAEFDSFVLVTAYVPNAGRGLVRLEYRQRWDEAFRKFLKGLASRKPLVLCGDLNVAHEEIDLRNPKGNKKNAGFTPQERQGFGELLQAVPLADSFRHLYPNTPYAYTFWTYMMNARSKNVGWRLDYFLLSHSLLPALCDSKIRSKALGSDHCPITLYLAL
# Values joined by “and” are separate entries in the source; they are usually repeats but may differ in a detail not shown here. Equal values may be shown once. The whole screen tested about 350,000 compounds, of which about 1,200 (0.34%) were called active. The shares of active, inactive and inconclusive entries below differ from those in the screen. The call rests on the fitted dose curve; in most records, active means well fitted inhibition curve with a large enough effect; inconclusive means small, poorly fitted or top-dose-only effect; inactive means no such curve, though single readings can be large or run the other way. Potencies beside an inconclusive call are fits to weak or partial responses and may not hold up.
# Biological target: DNA repair nuclease/redox regulator APEX1 (Homo sapiens) (UniProt P27695)
# Experiment: qHTS Assay for Inhibitors of the Human Apurinic/apyrimidinic Endonuclease 1 (APE1); further: nearly all actives have a fitted effect of over 55% in size
# Conditions: recombinant APE1, TAMRA/BHQ-2 abasic DNA cleavage fluorescence; series mostly up to 65.8 µM
# How it was run: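 Endonuclease cleavage of a quenched abasic-site DNA duplex (50 nM) by APE1 (0.75 nM) was tracked by TAMRA dequenching. Compounds were preincubated with enzyme 15 min at room temperature; data normalized to buffer-only and DMSO wells plus NSC13755 control.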
# Potency means the concentration at half of the fitted maximal effect.
row,SMILES,Potency
1,O=C1/C(=C\c2ccc(O)c(O)c2)C(c2ccccc2)=NN1c1ccccc1,"inconclusive: 22.4 µM [inhibitor, single point]"
2,CCOC(=O)CC(NC(=O)Cn1nnc(-c2ccccc2)n1)c1ccc(OC)cc1 (stereo unspecified),"inconclusive: 35.5 µM [inhibitor, single point]"
3,Cc1cccc(NCC(=O)N/N=C\c2cccn2C)c1,"inconclusive: 6.31 µM [inhibitor, full curve]"
4,CCCCCCN(C(=O)CCCCCN1C(=O)NC(C2CCCCC2)C(C(=O)OCc2ccccc2)=C1C)C(C(=O)NCCCC)c1ccc(OCC(=O)OC)c(C(=O)OC)c1 (stereo unspecified),inactive
5,COc1cc(/C=C2\CC/C(=C\c3cc(OC)c(O)c(OC)c3)C2=O)cc(OC)c1O,"inconclusive: 10 µM [inhibitor, partial curve]"
6,CCCCCCCCCCCCC/C=C/[C@@H](O)C(CO)NC(C)=O (stereo partly specified),inactive
7,CCCCC(=O)NCCc1c(Cc2ccccc2)[nH]c2ccccc12,"inconclusive: 28.2 µM [inhibitor, partial curve]"
8,O=C(O)CCCCn1c(SCC(=O)Nc2ccccc2C(F)(F)F)nc2ccsc2c1=O,inactive
9,Oc1ccc(-c2cn3ccccc3n2)cc1O,inactive
10,CC[C@@H]1OC(=O)[C@H](C)[C@H](O[C@@H]2C[C@](C)(OC)[C@H](O)[C@H](C)O2)[C@H](C)[C@H](O[C@@H]2O[C@@H](C)C[C@@H](N(C)C)[C@@H]2O)[C@](C)(O)C[C@H](C)[C@@H]2N[C@H](COCCOC)O[C@H]([C@@H]2C)[C@]1(C)O,"inconclusive: 3.98 µM [inhibitor, full curve, poor fit]"
11,COc1ccc(-c2cc(=O)c3ccccc3o2)cc1OC,inactive
12,C[C@@H]1C=C[C@](Cc2ccccc2)(C(=O)NCCN2CCOCC2)N1C(=O)c1ccccc1,inactive
13,CC(=O)OCC(=O)[C@H]1CC[C@H]2[C@@H]3CCC4=CC(=O)CC[C@]4(C)[C@H]3CC[C@]12C,"inconclusive: 2 µM [inhibitor, full curve, poor fit]"
14,COc1ccccc1C(=O)Nc1nnc(-c2ccco2)s1,"inconclusive: 39.8 µM [inhibitor, single point]"
15,Cc1cc(C)c2c(N)c3cccc(C)c3nc2n1,"inconclusive: 31.6 µM [inhibitor, single point]"
16,CCCCNS(=O)(=O)c1ccc2nc(-c3cccs3)cc(C(=O)NCC(OC)OC)c2c1,"inconclusive: 10 µM [inhibitor, partial curve]"
17,O=C(CSc1n[nH]c(=O)[nH]c1=O)c1ccccc1[N+](=O)[O-],"inconclusive: 0.891 µM [inhibitor, full curve]"
18,O=C(OCc1cnc(Cl)s1)c1ccccc1Cl,"inconclusive: 2.82 µM [inhibitor, partial curve, poor fit]"
19,O=c1oc2ccc(Cl)cc2cc1-c1nnc(Nc2cccc(C(F)(F)F)c2)s1,"inconclusive: 7.08 µM [inhibitor, single point]"
20,COC(=O)/C=C/C1c2ccccc2C(OC)C1C (stereo unspecified),"inconclusive: 3.98 µM [inhibitor, single point]"
21,CN(C)/C=C1\SC(=S)N(c2ccc(F)cc2)C1=O,inactive
22,O=C1c2ccccc2-c2nc3ccccc3nc21,inactive

row,SMILES,Potency
1,C=C(CC(=O)OC)C[C@]1(CC(=O)OC)CC2(CC=C(C)C)C(=O)C(C(=O)c3ccccc3)=C(OC(=O)c3ccc(Br)cc3)C(CC=C(C)C)(C1)C2=O (stereo partly specified),"inconclusive: 5.62 µM [inhibitor, single point]"
2,N#Cc1c(N2CCCC(O)C2)nc(N)c2c(N)nc3c(c12)CC(=O)N3C12CC3CC(CC(C3)C1)C2 (stereo unspecified),"inconclusive: 10 µM [inhibitor, partial curve]"
3,O=C1NC(=Nc2ccc3ccccc3c2)S/C1=C/c1ccco1,"inconclusive: 35.5 µM [inhibitor, single point]"
4,C=CCN1C(=O)CSC1=Nc1ccc(C(=O)O)cc1,inactive
5,Cc1nn(-c2ccc(Cl)cc2)c(=O)c2ccccc12,inactive
6,O=c1cc(-c2cc(O)c(O)c([C@@H]3O[C@H](CO)[C@@H](O)[C@H](O)[C@H]3O)c2)oc2cc(O[C@@H]3O[C@H](CO)[C@@H](O)[C@H](O)[C@H]3O)cc(O)c12,"inconclusive: 39.8 µM [inhibitor, single point]"
7,CC/C(=N\NC(=O)CNC(=O)/C=C/c1ccco1)c1ccccc1,inactive
8,Cc1ccccc1NC(=O)CSc1[nH]c(=O)cc(C)c1C#N,inactive
9,CCOC(=O)c1cnc2c(-c3ccccc3)cnn2c1C,"inconclusive: 4.47 µM [inhibitor, single point]"
10,N#CC(=C(\N)Sc1ccccc1N)/C(C#N)=C(/N)Sc1ccccc1N,inactive
11,CC1(C)CC(CC(=O)NC(=S)Nc2ccc([N+](=O)[O-])cc2)C(=O)O1 (stereo unspecified),"inconclusive: 1 µM [inhibitor, full curve, poor fit]"
12,O=C(O)C1Nc2c(C(=O)N3CCOCC3)cccc2C2C=CCC12 (stereo unspecified),"inconclusive: 25.1 µM [inhibitor, partial curve]"
13,CN1CCN(c2cc(-c3cc(O)c4ncccc4c3)ccn2)CC1,inactive
14,N#C/C(=C\c1ccc(O)c(O)c1)C(=O)NCc1ccccc1,"inconclusive: 15.8 µM [inhibitor, partial curve, poor fit] and inconclusive: 5.01 µM [inhibitor, partial curve]"
15,CCCCn1nnc(NC(=S)NC(=O)c2ccc(-c3cccc(Cl)c3Cl)o2)n1,"inconclusive: 39.8 µM [inhibitor, single point]"
16,NC(N)=NC(N)=Nc1cccc2ccccc12,"inconclusive: 0.0708 µM [inhibitor, full curve]"
17,Cc1ccc(S(=O)(=O)Nc2ccc(NS(=O)(=O)c3ccc(C)cc3)c3ncccc23)cc1,inactive
18,COc1ccccc1NC(=O)CSc1nc(O)cc(=O)n1-c1ccccc1OC,inactive
19,Cc1cc2c(cc1S(=O)(=O)Nc1cccc(C)c1C)n(C)c(=O)c(=O)n2C,inactive
20,CCOC(=O)N1CCN(C2=C(NS(=O)(=O)c3ccc(NC(C)=O)cc3)C(=O)c3ccccc3C2=O)CC1,inactive
21,CCN(c1ccccc1)S(=O)(=O)c1ccc(OC)c(NS(=O)(=O)c2cccs2)c1,"inconclusive: 39.8 µM [inhibitor, partial curve, poor fit]"
22,Cc1ccc2oc(=O)c3cc(C(=O)NCCCN4CCc5ccccc5C4)sc3c2c1,inactive

# 2 consecutive compounds out of the list so far, for reference:
row,SMILES,Potency
10,CC[C@@H]1OC(=O)[C@H](C)[C@H](O[C@@H]2C[C@](C)(OC)[C@H](O)[C@H](C)O2)[C@H](C)[C@H](O[C@@H]2O[C@@H](C)C[C@@H](N(C)C)[C@@H]2O)[C@](C)(O)C[C@H](C)[C@@H]2N[C@H](COCCOC)O[C@H]([C@@H]2C)[C@]1(C)O,"inconclusive: 3.98 µM [inhibitor, full curve, poor fit]"
11,COc1ccc(-c2cc(=O)c3ccccc3o2)cc1OC,inactive

# Additional results:

row,SMILES,Potency
1,CCOC(=O)c1c(-c2ccc(C)o2)csc1NC(=O)CSc1nncs1,"inconclusive: 39.8 µM [inhibitor, single point]"
2,NC(=O)c1cc([N+](=O)[O-])ccc1N1CCCCC1,"inconclusive: 0.0045 µM [inhibitor, full curve, poor fit]"
3,Cc1ccc(-c2cnn(-c3ccccc3)c2N)cc1,inactive
4,CC(C)C[C@@H]1NC(=O)[C@H](C(C)C)NC(=O)c2cc([N+](=O)[O-])cc(I)c2OCC[C@@H](C(N)=O)NC1=O,"inconclusive: 7.08 µM [inhibitor, single point]"
5,O=C(NCc1ccc2c(c1)OCO2)c1ccc(NC(=O)C2CCCO2)cc1 (stereo unspecified),inactive
6,CO[C@H]1COC(=O)C/C=C\[C@@H](C)COC(=O)[C@@H](CCSC)NC(=O)C/C=C\[C@@H]1C,"inconclusive: 8.91 µM [inhibitor, single point]"
7,O=C1CC(C(=O)Nc2ccc(C(=O)O)cc2)C(c2ccccc2)O1 (stereo unspecified),"inconclusive: 44.7 µM [inhibitor, partial curve, poor fit]"
8,C=CCN(CC=C)C(=O)COC(=O)c1ccc(Sc2ncn[nH]2)c([N+](=O)[O-])c1,"inconclusive: 11.2 µM [inhibitor, partial curve, poor fit]"
9,Cc1cc(Nc2ccccc2)c2c([N+](=O)[O-])ccc(C)c2n1,inactive
10,CC(=O)Nc1ccc(NC(=O)Cc2ccc(S(=O)(=O)N3CCCCC3)s2)cc1,"inconclusive: 20 µM [inhibitor, partial curve]"
11,Cc1cc(C(=O)O)ccc1-n1c(C)cc(C=C2C(=O)c3ccccc3C2=O)c1C,"inconclusive: 22.4 µM [inhibitor, partial curve]"
12,O=C1c2ccsc2SCCN1Cc1c(Cl)cccc1Cl,"inconclusive: 4.47 µM [inhibitor, single point]"
13,CCOc1ccc(OCC)c(NC(=O)CN2CCN(c3cccc(C)c3)CC2)c1,"inconclusive: 44.7 µM [inhibitor, single point]"
14,Cc1nc2ccccc2nc1OCC(=O)Nc1ccc2ccccc2c1,"inconclusive: 28.2 µM [inhibitor, single point]"
15,OCC1CCCC(n2cnc3c(=S)nc[nH]c32)O1 (stereo unspecified),inactive
16,CCC(c1nnnn1C1CCCC1)N1CCN(c2ccccc2)CC1 (stereo unspecified),"inconclusive: 39.8 µM [inhibitor, single point]"
17,COc1ccc(CN2CCN(c3cccc(C)c3C)CC2)cc1OC,"inconclusive: 0.355 µM [inhibitor, full curve]"
18,Nc1nnc(CC(=O)N/N=C\c2cc([N+](=O)[O-])ccc2O)s1,inactive
19,Oc1[nH]c2ccccc2c1N=Nc1ccccc1,"inconclusive: 1.78 µM [inhibitor, full curve, poor fit]"
20,Cc1onc(-c2c(Cl)cccc2Cl)c1C(=O)c1ccc(F)cc1,"inconclusive: 0.0316 µM [inhibitor, full curve, poor fit]"
21,CC(C)(C)n1ncc2c(=O)n(Cc3ccccc3CS(=O)(=O)c3ccccc3)cnc21,"inconclusive: 0.0079 µM [inhibitor, partial curve]"
22,CCN1CCN(Cc2ccc(NC(=O)c3cc(NC(=O)c4cc(-c5ccc(OC)cc5)n[nH]4)cc(OC)c3)cc2C(F)(F)F)CC1,"inconclusive: 5.01 µM [inhibitor, single point]"

# Grouped by structure: the entries above with a CF3 group
row,SMILES,Potency
8,O=C(O)CCCCn1c(SCC(=O)Nc2ccccc2C(F)(F)F)nc2ccsc2c1=O,inactive
19,O=c1oc2ccc(Cl)cc2cc1-c1nnc(Nc2cccc(C(F)(F)F)c2)s1,"inconclusive: 7.08 µM [inhibitor, single point]"
22,CCN1CCN(Cc2ccc(NC(=O)c3cc(NC(=O)c4cc(-c5ccc(OC)cc5)n[nH]4)cc(OC)c3)cc2C(F)(F)F)CC1,"inconclusive: 5.01 µM [inhibitor, single point]"
